From the supplement of paper PMC10849652
Some of the results follow.

The chains behind the UniProt entries cited, without tags or fusion partners. Where a name states a change or a piece, a line headed by the entry shows the natural chain unless it says otherwise.
UniProt O94822: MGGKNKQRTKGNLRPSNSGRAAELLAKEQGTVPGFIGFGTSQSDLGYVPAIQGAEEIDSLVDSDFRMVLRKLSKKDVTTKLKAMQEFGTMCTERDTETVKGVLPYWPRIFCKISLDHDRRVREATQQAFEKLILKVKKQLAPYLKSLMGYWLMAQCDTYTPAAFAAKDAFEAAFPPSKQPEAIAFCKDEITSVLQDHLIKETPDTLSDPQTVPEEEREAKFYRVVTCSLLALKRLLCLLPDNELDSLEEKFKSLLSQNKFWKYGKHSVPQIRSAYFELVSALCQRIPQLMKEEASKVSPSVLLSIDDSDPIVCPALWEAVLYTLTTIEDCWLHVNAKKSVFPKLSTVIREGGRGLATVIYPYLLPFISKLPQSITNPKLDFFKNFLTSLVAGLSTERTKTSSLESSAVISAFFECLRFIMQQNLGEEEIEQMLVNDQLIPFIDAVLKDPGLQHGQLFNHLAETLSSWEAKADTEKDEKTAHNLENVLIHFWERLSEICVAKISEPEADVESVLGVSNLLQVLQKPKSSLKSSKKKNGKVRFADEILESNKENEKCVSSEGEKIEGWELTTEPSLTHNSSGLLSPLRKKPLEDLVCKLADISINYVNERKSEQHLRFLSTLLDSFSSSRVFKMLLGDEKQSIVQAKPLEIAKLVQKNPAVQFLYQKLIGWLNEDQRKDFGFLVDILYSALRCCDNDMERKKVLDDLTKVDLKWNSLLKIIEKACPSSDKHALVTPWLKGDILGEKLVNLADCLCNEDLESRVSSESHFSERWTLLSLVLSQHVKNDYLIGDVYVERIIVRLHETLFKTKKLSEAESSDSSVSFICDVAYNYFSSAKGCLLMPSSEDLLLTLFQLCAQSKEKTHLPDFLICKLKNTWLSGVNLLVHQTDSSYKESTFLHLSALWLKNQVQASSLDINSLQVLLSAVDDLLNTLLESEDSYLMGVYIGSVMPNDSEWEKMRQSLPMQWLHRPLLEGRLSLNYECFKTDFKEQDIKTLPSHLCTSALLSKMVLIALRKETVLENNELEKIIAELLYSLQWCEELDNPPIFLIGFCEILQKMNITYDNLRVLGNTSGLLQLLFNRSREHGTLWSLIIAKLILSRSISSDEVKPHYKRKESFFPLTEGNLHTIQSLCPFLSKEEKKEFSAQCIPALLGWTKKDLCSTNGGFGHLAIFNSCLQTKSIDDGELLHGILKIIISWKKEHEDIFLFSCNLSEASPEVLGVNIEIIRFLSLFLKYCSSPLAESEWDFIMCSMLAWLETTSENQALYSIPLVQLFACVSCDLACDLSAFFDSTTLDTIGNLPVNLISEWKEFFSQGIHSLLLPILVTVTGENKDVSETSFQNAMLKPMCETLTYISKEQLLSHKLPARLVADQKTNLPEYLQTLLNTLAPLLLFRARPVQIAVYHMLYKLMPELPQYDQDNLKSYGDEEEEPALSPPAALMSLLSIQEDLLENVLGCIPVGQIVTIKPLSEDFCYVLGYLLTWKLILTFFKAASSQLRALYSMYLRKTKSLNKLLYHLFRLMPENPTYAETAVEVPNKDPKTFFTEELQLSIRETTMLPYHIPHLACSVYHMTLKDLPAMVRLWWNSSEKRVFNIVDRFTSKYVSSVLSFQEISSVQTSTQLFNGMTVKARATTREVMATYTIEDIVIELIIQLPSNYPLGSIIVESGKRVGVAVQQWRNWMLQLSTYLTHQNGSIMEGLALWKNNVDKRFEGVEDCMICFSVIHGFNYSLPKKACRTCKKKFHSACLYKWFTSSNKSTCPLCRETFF
UniProt Q9NU23: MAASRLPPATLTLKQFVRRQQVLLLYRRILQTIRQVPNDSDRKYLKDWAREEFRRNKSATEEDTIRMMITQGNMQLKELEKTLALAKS
UniProt Q7Z3D4: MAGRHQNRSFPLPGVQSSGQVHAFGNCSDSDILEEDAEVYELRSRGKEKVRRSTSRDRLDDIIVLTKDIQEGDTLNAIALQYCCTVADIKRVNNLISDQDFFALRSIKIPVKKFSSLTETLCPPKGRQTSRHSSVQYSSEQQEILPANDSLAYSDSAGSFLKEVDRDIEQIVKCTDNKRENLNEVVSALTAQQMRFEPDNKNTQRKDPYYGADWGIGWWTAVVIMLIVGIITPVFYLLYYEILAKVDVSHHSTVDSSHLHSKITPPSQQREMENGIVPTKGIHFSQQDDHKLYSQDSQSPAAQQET
UniProt O15479: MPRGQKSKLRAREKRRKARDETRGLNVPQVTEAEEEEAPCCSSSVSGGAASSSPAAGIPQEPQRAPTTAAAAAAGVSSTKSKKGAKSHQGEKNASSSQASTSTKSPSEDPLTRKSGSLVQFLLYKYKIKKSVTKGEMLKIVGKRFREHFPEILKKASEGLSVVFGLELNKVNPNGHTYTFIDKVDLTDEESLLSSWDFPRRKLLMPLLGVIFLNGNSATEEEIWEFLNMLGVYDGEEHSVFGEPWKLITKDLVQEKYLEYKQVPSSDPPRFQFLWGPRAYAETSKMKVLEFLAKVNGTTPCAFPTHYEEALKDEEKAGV
UniProt Q9H063: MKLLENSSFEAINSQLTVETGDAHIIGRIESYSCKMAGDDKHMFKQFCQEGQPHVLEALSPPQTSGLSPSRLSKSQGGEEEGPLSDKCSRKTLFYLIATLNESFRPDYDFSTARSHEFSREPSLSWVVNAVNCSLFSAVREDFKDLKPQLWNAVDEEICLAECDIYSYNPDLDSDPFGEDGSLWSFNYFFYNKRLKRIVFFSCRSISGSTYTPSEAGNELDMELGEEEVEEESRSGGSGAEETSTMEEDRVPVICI
UniProt O00462: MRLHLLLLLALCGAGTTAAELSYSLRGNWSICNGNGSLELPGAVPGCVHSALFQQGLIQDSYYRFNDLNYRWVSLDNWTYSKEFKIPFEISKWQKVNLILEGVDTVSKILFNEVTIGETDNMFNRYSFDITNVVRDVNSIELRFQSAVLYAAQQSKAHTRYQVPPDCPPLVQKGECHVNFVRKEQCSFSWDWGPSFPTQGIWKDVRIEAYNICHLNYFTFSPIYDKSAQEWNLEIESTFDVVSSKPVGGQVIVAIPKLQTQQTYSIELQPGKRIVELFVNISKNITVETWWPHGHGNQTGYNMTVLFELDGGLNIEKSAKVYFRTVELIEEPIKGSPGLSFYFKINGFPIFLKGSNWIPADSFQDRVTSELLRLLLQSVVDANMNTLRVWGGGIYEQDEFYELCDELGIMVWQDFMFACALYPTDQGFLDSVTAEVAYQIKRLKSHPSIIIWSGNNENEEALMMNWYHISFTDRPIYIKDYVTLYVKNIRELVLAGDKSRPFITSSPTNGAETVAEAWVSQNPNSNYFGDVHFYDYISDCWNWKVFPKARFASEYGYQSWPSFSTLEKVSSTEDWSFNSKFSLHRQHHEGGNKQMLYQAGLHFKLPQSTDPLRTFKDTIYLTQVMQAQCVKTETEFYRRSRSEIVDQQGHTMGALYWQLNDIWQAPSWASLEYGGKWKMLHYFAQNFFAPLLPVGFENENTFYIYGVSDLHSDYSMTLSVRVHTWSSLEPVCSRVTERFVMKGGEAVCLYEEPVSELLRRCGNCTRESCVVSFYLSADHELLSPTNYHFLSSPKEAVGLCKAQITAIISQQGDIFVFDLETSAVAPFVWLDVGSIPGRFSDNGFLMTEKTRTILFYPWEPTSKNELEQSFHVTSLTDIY
UniProt O60476: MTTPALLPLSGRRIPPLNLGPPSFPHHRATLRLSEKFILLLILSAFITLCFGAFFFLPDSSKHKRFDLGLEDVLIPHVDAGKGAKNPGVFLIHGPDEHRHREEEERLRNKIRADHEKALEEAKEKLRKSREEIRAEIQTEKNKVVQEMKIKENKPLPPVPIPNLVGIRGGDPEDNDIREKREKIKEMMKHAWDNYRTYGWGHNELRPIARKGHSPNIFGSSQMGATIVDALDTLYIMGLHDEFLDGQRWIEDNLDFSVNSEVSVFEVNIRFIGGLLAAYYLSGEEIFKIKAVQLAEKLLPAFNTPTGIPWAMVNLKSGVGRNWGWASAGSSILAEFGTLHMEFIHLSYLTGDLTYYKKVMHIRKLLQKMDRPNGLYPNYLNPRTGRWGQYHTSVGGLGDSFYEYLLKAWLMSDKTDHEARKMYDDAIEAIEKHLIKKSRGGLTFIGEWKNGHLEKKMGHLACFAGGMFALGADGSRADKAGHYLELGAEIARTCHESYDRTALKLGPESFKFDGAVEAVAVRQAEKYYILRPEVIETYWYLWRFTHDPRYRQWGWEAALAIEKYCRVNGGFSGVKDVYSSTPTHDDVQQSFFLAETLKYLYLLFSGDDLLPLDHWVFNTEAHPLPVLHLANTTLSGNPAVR
UniProt Q8IV50: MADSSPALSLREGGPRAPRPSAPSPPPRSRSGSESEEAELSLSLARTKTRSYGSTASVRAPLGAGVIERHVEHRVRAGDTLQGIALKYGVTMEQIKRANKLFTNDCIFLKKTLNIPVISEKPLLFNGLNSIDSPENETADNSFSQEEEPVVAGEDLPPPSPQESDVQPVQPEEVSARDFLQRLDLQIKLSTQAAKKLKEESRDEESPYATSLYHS
UniProt Q9UNF1: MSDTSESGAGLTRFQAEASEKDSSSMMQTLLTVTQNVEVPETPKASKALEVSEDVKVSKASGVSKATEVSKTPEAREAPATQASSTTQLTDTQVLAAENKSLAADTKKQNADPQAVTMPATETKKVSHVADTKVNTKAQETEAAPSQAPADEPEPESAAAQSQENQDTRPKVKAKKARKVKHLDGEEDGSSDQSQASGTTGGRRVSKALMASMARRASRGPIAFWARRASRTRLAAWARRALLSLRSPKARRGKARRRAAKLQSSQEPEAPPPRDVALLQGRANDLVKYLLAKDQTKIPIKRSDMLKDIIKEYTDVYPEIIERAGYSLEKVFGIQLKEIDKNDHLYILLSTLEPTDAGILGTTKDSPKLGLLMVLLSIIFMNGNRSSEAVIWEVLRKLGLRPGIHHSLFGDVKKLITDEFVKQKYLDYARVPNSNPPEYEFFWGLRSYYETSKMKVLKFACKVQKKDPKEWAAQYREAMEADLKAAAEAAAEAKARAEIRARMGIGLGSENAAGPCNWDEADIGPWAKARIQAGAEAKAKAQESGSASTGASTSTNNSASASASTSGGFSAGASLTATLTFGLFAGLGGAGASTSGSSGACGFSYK
UniProt Q9NZL9, whole entry, looked up: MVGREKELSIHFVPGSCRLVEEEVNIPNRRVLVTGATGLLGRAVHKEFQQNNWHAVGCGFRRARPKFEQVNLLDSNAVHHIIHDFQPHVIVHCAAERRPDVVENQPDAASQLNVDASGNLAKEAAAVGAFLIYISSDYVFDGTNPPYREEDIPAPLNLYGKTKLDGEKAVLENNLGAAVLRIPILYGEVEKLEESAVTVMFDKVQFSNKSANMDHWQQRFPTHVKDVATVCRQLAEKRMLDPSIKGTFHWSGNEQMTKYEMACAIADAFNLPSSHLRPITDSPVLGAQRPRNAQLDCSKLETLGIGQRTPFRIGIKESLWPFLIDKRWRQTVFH
UniProt Q15013: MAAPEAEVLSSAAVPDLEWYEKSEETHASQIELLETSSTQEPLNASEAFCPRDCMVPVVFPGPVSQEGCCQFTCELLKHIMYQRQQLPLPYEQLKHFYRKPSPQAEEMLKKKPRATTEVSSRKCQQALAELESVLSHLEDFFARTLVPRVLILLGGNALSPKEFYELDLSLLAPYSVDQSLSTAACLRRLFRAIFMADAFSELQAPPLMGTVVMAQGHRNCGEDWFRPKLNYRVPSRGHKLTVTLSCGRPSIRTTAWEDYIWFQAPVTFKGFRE

The targets below were run with C1CN(CCC1(CC2=CC=C(C=C2)Cl)N)C3=NC=NC4=C3C=CN4 (assay: log2 fold change, soluble protein after heating vs DMSO (PISA); higher = thermal stabilisation; K562 lysate, 10 uM; active = over 0.2 and 3.5 SD of the protein, either way, in both replicates (recomputed)).
How it was run: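 A 30 min treatment with 10 μM compound was applied to crude K562 extract at 1 mg/mL protein in PBS pH 7.4 with 1 mM MgCl2. Heating for 3 min spanned 48°C-58°C, after which aliquots were pooled, adjusted to 0.5% NP-40 at 4°C and spun at 21,000xg for 90 min. TMTpro 16plex LC-MS/MS of the supernatant, with channel sums equalised, gave values recorded as log-two fold change in thermal stability against solvent controls, from duplicates.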

log2 fold change, inactive:
LTN1 isoform 3 (UniProt O94822) 0.023
LYRM2 (UniProt Q9NU23) 0.016
LYSMD3 (UniProt Q7Z3D4) 0
MAP2K2 (UniProt P36507) 0.017
MAGEB2 (UniProt O15479) -0.015
MAF1 (UniProt Q9H063) 0.039
LYAR (UniProt Q9NX58) -0.003
MANBA (UniProt O00462) 0.032
MAP1B (UniProt P46821) 0
LYPLAL1 (UniProt Q5VWZ2) 0.025
MADD isoform 4 (UniProt Q8WXG6) -0.01
MAGEC1 (UniProt O60732) 0.003
MAGI3 isoform 1 (UniProt Q5TCQ9) 0.045
MAN1A2 (UniProt O60476) -0.009
LYSMD2 (UniProt Q8IV50) -0.003
MAGED2 (UniProt Q9UNF1) -0.032
MAPRE2 (UniProt Q15555) -0.035
MAP3K20 isoform 2 (UniProt Q9NYL2) -0.012
MAT2B (UniProt Q9NZL9) -0.004
LYSMD1 (UniProt Q96S90) -0.046
MAP2K3 isoform 3 (UniProt P46734) 0.129

Fetched one by one from the entries so far:
log2 fold change, inactive:
MADD isoform 4 (UniProt Q8WXG6) -0.01
MAPRE2 (UniProt Q15555) -0.035

Following part.

log2 fold change, active:
MAD2L1BP isoform 3 (UniProt Q15013) 0.263
